Results are given in words; binding and its absence hold for the method and conditions named.
Target: T1, recombinant human S100A8 (human) (UniProt P05109)
T1 sequence: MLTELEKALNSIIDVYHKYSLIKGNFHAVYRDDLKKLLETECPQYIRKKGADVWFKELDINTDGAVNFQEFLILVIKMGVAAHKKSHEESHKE
Assay: SPR; Biacore 3000; S100A8 and S100A9 immobilised in separate flow cells on a CM5 chip by amine coupling, to the same level; CD14 injected at 50 to 800 nM for 2 min at 30 ul/min in HBS-P (10 mM HEPES, 0.15 M NaCl, pH 7.4, 0.005% P20) with 1 mM Ca2+ and 20 uM Zn2+; regeneration with 3 mM EDTA; sensorgrams fit to a 1:1 model; both purified

B1: recombinant human CD14 (receptor, UniProt P08571 20-345)
chain: TTPEPCELDDEDFRCVCNFSEPQPDWSEAFQCVSAVEVEIHAGGLNLEPFLKRVDADADPRQYADTVKALRVRRLTVGAAQVPAQLLVGALRVLAYSRLKELTLEDLKITGTMPPLPLEATGLALSSLRLRNVSWATGRSWLAELQQWLKPGLKVLSIAQAHSPAFSCEQVRAFPALTSLDLSDNPGLGERGLMAALCPHKFPAIQNLALRNTGMETPTGVCAALAAAGVQPHSLDLSHNSLRATVNPSAPRCMWSSALNSLNLSFAGLEQVPKGLPAKLRVLDLSCNRLNRAPQPDELPEVDNLTLDGNPFLVPGTALPHEGSMN
In the case of B1, the binding is reported as “no binding (tested: 50 to 800 nM CD14)”.
